Test results reported in PubChem BioAssay AID2417 (National Center for Advancing Translational Sciences (NCATS), 2010).
In all, about 140,000 compounds went through this assay and about 4,300 (3.1%) were called active. The shares of active, inactive and inconclusive entries below differ from those in the screen.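 How the source made its calls: active means readout at or below -70, meaning at least 70% loss of cells showing the perinucleolar compartment, a nuclear body marking cancer cells; inconclusive means readout between -30 and a set limit; inactive means the rest.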

Assay: High Content Assay for Compounds that inhibit the Assembly of the Perinucleolar Compartment;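 further: plate controls were DMSO wells for no effect and camptothecin positive control wells for full effect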
Conditions: PC3M PTB-GFP, PNC prevalence imaging, 16 h; at 10 µM; active compounds read low
In short: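 PC3M cells stably expressing PTB-GFP, 750–1000 cells/well, treated 16 h at 37 °C with compound (23 nl of library stock), in duplicate. After paraformaldehyde fixation and Hoechst stain, imaged at 20x; PNC prevalence scored by image analysis.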

Structure (SMILES)	activity change (PNC), negative = inhibition
CCCS/C(N)=N/N=C/c1ccccc1O	inconclusive: -36.7%
COc1ccc(NS(=O)(=O)c2cc(OCC(N)=O)c(C)cc2Cl)cc1	inactive: -2.59%
O=C(O)C(C(=O)/C=C/c1ccco1)=C1SCCS1	inactive: 30.3%
Cc1cccn2c(=O)c(C=O)c(N3CCCCCC3)nc12	inactive: -24.1%
CC(C)(C)NC(=O)C(c1ccco1)N(C(=O)Cn1nnc(-c2ccc(F)cc2)n1)c1ccccc1F (configuration not stated)	inconclusive: -34.2%
O=C1NC2(CCCc3ccccc32)C(=O)N1CCOc1ccc(Br)cc1 (configuration not stated)	inactive: -8.83%
Cc1nc(NCCN2CCOCC2)c2oc3ccccc3c2n1	inactive: 23.8%
CSc1nncn1/N=C/c1ccccc1F	inconclusive: -43.3%
COc1ccc(-c2nnc(SC(C)C(=O)Nc3nccs3)n2-c2ccccc2)cc1OC (configuration not stated)	inconclusive: -62.3%
CCOC(=O)c1cc(-c2ccccc2)n(CC(=O)Nc2ccc(OC)c(OC)c2)c1C	active: -88.1%
O=C1OCC(CO)(CO)N=C1NNc1cc(Cl)ccc1Cl	inactive: 24.9%
CCOC(=O)c1c(C)c(C(=O)NC(C)COC)c(C)n1CC (configuration not stated)	active: -102%
CCCCN1C(=O)N(C)C2C1N(C)C(=O)N2CCCC (configuration not stated)	active: -100%
Cc1oc(/C=N/NS(=O)(=O)c2ccccc2)cc1Br	inconclusive: -37.9%
Cc1cc2nc(-c3ccc(NC(=O)C(C)C)cc3)oc2cc1C	inconclusive: -34.2%
C/C(Cc1ccccc1)=N\NC(=O)CNC(=O)c1cccc(Br)c1	inactive: 19.9%
CCOC(=O)N1CCN(C(=O)C2CC(=O)N(Cc3ccc(OC)cc3)C2)CC1 (configuration not stated)	inconclusive: -42.4%
COc1cc(-c2noc(-c3ccco3)n2)cc(OC)c1OC	inconclusive: -33.4%
COc1ccc(NC2=NCC(Cc3ccc(Br)cc3)S2)cc1 (configuration not stated)	active: -91.7%
O=S(=O)(NCC(c1cccnc1)N1CCN(c2ccc(F)cc2)CC1)c1cccs1 (configuration not stated)	inconclusive: -30%
Cc1cccc(N(C)S(=O)(=O)c2ccc3[nH]c(=O)c(=O)[nH]c3c2)c1	inactive: 49.4%
CCN(CC)c1ccc(NC(=O)c2ccc(Br)o2)c(C)c1	inconclusive: -32.9%
O=C(N/N=C\c1cccc(Br)c1)c1ccccc1-n1cccc1	inconclusive: -65.2%

Structure (SMILES)	activity change (PNC), negative = inhibition
CCc1cccc2c(C(=O)COC(=O)c3nn(C)c(=O)c4ccccc34)c[nH]c12	active: -109%
Cc1nonc1NC(=O)CSc1ccc(-c2ccccc2)nn1	inconclusive: -51.2%
O=C(NCc1ccc2c(c1)OCO2)c1cccc2c1C(=O)N(C1CCCCC1)C2	inactive: 1.17%
CC(=O)Nc1ccc(S(=O)(=O)n2cnc3ccccc32)cc1	inactive: -15.4%
COc1cc(OC)c(OC)cc1/C=N/NC(=O)c1ccc(=O)n(C)c1	inconclusive: -42.4%
O=C(NN1CCCCC1)c1ccccc1	inconclusive: -40.3%
COC(=O)c1c(C)oc2ccc(NS(=O)(=O)c3cc(OC)ccc3OC)cc12	inconclusive: -41%
COc1cccc(NC(=O)CSc2nnc(-c3ccoc3C)n2-c2ccccc2)c1	active: -86.9%
Cc1cc(C(F)(F)F)c(C#N)c(Sc2ccccc2)n1	inconclusive: -72.3%
Cn1c(C(=O)Nc2ccc3c(c2)OCO3)cc2c(=O)n(C)c3ccccc3c21	inconclusive: -34.2%
CCCCCCC(=O)N/N=C/Cc1ccccc1	inconclusive: -39.5%
O=C(NC1CCCCC1)C(c1ccc(F)cc1)N(Cc1cccs1)C(=O)CN1C(=O)c2ccccc2S1(=O)=O (configuration not stated)	inconclusive: -43.9%
COc1ccc(-c2cn[nH]c2N)cc1	inconclusive: -39.7%
CCCCC(=O)NC(Nc1ccc(C)cn1)(C(=O)OCC)C(F)(F)F (configuration not stated)	inconclusive: -65.5%
c1ccc(Cc2nn3c(Cn4cnc5ccccc54)nnc3s2)cc1	inconclusive: -34.2%
Cc1cccc(NC(=O)c2cc(Cl)ccc2[N+](=O)[O-])c1	inconclusive: -48.2%
O=C(OCCN1C(=O)c2ccccc2C1=O)c1cccs1	inconclusive: -34.1%
c1ccc2cc3[nH]c(CN4CCCCC4)nc3cc2c1	inconclusive: -43.8%
CC(OC(=O)c1ccc([N+](=O)[O-])s1)C(=O)Nc1ncc(Cl)cc1Cl (configuration not stated)	inactive: 65.7%
COc1ccc(-n2c(C)nc3cc(C(=O)N4CCOCC4)ccc32)cc1	inconclusive: -32.3%
C/C(=N\NC(=S)Nc1c(C)cccc1C)c1cc2ccccc2o1	inconclusive: -34.7%
CCCc1nc2n[nH]c(N)c2c2c1CCC2	inconclusive: -37.8%
O=C(COc1ccc2ccccc2c1)NCCNC(=O)COc1ccc2ccccc2c1	inactive: 15%

Structure (SMILES)	activity change (PNC), negative = inhibition
CSc1ccc(C(=S)N2CCN(CCO)CC2)cc1	inconclusive: -73.2%
CCc1ccc(C(=O)Cn2ncc(Cl)c(Cl)c2=O)cc1	inactive: 5.89%
O=C(O)CCc1ccc(-c2ccccc2)n1NC(=O)c1ccco1	inconclusive: -35%
Cc1cccc(OCC(=O)Nc2ccc3c(c2)OCO3)c1C	inconclusive: -42.1%
CCOC(=O)c1cnc(-n2nc(C)cc2C)nc1N1CCOCC1	inconclusive: -49.6%
CCN1C(=O)/C(=C/c2nc3ccccc3c(=O)n2-c2ccc(C)cc2)c2ccccc21	inconclusive: -42.1%
C#CCOc1c(Br)cc(/C=N\NC(=O)CN2CCOCC2)cc1OCC	inconclusive: -47.4%
COc1cc(NC(=O)c2cc(C(C)C)on2)c(OC)cc1Cl	inconclusive: -32.7%
Cn1nccc1C(=O)c1ccc(Cl)cc1	inactive: 2.53%
COc1cc(C)nc(N2CCC(C(N)=O)CC2)n1	inconclusive: -36.5%
Oc1ccc(N=Nc2cccc(C(F)(F)F)c2)cc1C=Nc1ccc(N2CCOCC2)cc1	inactive: 40.8%
O=c1c(Cl)c(NCc2ccccc2Cl)cnn1C12CC3CC(CC(C3)C1)C2	inactive: -12.8%
O=[N+]([O-])c1cc2c(cc1/C=N/Nc1nc(N3CCCC3)nc(N3CCCC3)n1)OCO2	inconclusive: -33.6%
COc1cc(C)nc(N2CCCC(C(=O)Nc3cccc(Cl)c3Cl)C2)n1 (configuration not stated)	active: -86.7%
Cc1ccc(C2=NC3(CCCC3)N=C2SCC(=O)Nc2ccc3c(c2)OCCO3)cc1	inconclusive: -60.4%
Cc1ccc(-c2c(C)n([O-])c3c([n+]2=O)CCC3)cc1	inconclusive: -30.9%
CC(NC(=S)Nc1ccc(Cl)cc1Cl)C(c1cccs1)N1CCCC1 (configuration not stated)	inconclusive: -40.6%
CC(Sc1nnc(C2CCCCC2)n1N)C(=O)NCc1ccc2c(c1)OCO2 (configuration not stated)	inconclusive: -51%
CC(C)(C)NC(=O)Cn1nnc(-c2ccccc2Cl)n1	inactive: 25.1%
CC/C(Cc1ccccc1)=N\NC(=O)c1cc(C)oc1C	inconclusive: -49.4%
N#C/C(=N\Nc1cccc2ccccc12)c1nnc2n1CCCCC2	active: -113%
O=C(NCCN1CCCCC1)c1cc2ccccc2[nH]1	inconclusive: -34.1%
O=[N+]([O-])c1cccc(Cl)c1NCCNS(=O)(=O)c1ccc(Cl)cc1	inconclusive: -47%

Of the compounds above, two have a cyano group:
Structure (SMILES)	activity change (PNC), negative = inhibition
Cc1cc(C(F)(F)F)c(C#N)c(Sc2ccccc2)n1	inconclusive: -72.3%
N#C/C(=N\Nc1cccc2ccccc12)c1nnc2n1CCCCC2	active: -113%

The list continues.

Structure (SMILES)	activity change (PNC), negative = inhibition
O=C(Nc1ccccc1Cl)O/N=C(/c1ccccc1)c1ccccn1	active: -96.2%
CC(C)OC(=O)CN1CCN(S(=O)(=O)c2cc(Cl)ccc2Cl)CC1	inconclusive: -41.7%
O=C(Nc1ccc2cn[nH]c2c1)c1ccc(Cl)c(S(=O)(=O)N2CCOCC2)c1	inactive: -24.4%
CCNS(=O)(=O)c1ccc(NC(=O)Nc2cccc(C(F)(F)F)c2)cc1	inactive: -8.69%
CN(C)c1nn(C(=O)Nc2ccc(Cl)cc2Cl)cc1-c1ccccc1	inconclusive: -32.6%
Cc1ccc(C(=O)Nc2ccccc2C(=O)N2CCOCC2)cc1[N+](=O)[O-]	inconclusive: -41.4%
COc1ccc(OCc2nnc3n2N=C(c2ccc(C)cc2)CS3)cc1	inconclusive: -38.7%
COc1cccc(C2=NOC(C(=O)Nc3cccc(C(C)=O)c3)C2)c1OC (configuration not stated)	inconclusive: -41.3%
COc1cc(NS(=O)(=O)c2ccc(OC)c(C)c2C)c(OC)cc1Cl	active: -108%
Cc1ccc(NC(=S)NC(=O)c2ccc(-c3ccc(Cl)cc3)o2)c(O)c1	inconclusive: -32.3%
COc1ccc(CNC(=O)C2CCN(S(=O)(=O)N3CCC4(CC3)OCCO4)CC2)c(OC)c1	inconclusive: -70.4%
COc1cccc(/C(C)=N/Nc2ncc(Cl)cc2Cl)c1	inconclusive: -53%
CC1(C)OC(=O)C(=CNc2ccccc2F)C(=O)O1	inconclusive: -30.4%
COC(=O)C/C(C)=N/Nc1ccc(S(=O)(=O)N2CCCC2)cc1[N+](=O)[O-]	inactive: 12.3%
Cc1ccc(NC(=O)N2CCC(C(N)=O)CC2)cc1	inconclusive: -44.1%
CC(OC(=O)c1ccc2ccccc2n1)C(=O)Nc1ccc(N2CCOCC2)cc1 (configuration not stated)	inconclusive: -78%
CC[C@@H](NS(=O)(=O)c1ccc(C)cc1)C(=O)Oc1ccc2c3c(c(=O)oc2c1)CCC3	inconclusive: -56%
O=C(O)c1ccccc1C(=O)c1ccc(Oc2ccccc2)cc1	active: -85%
Clc1ccc(NCn2cncn2)nc1	inactive: -5.23%
CCN(CC)C1CCCCC1NS(=O)(=O)c1ccc(Cl)cc1 (configuration not stated)	inconclusive: -38.6%
COC(=O)c1coc(-c2ccc(OC)cc2)c1C(=O)OC	inactive: 18.4%
CCCC(C)NC(=O)c1cc(C(=O)OC)cc([N+](=O)[O-])c1 (configuration not stated)	inactive: -3.52%
Cc1cc(C)cc(N(CCC(=O)Nc2nnc(C)s2)S(=O)(=O)c2ccc(Cl)cc2)c1	inactive: 32.1%
